Reference: doi:10.1101/2022.10.04.510822 (bioRxiv, 2022)
These are yes or no findings as the source states them, for the method shown. In cells and extracts the contact can be indirect. Some results given as binding are weak or reduced against the parent protein; the word gives no strength.

Amino acid sequences for entries named in this document (tags omitted).
UniProt O95166: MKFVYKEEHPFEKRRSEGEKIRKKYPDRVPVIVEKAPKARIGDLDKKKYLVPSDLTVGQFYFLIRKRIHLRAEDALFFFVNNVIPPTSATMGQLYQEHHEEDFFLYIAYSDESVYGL
UniProt Q04206: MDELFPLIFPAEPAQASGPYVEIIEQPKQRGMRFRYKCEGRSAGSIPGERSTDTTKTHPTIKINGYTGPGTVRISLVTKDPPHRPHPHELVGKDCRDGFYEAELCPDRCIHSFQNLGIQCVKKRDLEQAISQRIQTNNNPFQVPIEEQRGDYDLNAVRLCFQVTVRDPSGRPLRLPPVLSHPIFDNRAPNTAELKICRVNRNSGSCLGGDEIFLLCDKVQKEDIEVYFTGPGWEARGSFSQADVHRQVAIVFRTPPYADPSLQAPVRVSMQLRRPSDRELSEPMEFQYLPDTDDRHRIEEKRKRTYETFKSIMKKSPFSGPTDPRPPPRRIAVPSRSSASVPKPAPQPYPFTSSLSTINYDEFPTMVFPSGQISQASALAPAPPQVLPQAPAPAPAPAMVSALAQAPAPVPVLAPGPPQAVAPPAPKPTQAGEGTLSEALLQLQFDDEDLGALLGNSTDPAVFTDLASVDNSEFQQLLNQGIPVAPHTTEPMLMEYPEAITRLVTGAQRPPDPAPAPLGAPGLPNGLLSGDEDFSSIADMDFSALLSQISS

Columns and labels:
Assay in all cases: co-IP
[1] = biological target: HA-GABARAP (HEK293T) (human) (UniProt O95166)
[2] = biological target: GABARAP, endogenous in HEK293T (human (endogenous in HEK293T)) (UniProt O95166)
[3] = biological target: Flag-GABARAP (HEK293T) (human) (UniProt O95166)
[4] = biological target: p65, endogenous in HEK293T (human (endogenous in HEK293T)) (UniProt Q04206)
[5] = biological target: Flag-p65 (HEK293T) (UniProt Q04206)

Measured: binding

B1: WSTF, endogenous in HEK293T (protein, UniProt Q9UIG0 1-1483)
chain: MAPLLGRKPFPLVKPLPGEEPLFTIPHTQEAFRTREEYEARLERYSERIWTCKSTGSSQLTHKEAWEEEQEVAELLKEEFPAWYEKLVLEMVHHNTASLEKLVDTAWLEIMTKYAVGEECDFEVGKEKMLKVKIVKIHPLEKVDEEATEKKSDGACDSPSSDKENSSQIAQDHQKKETVVKEDEGRRESINDRARRSPRKLPTSLKKGERKWAPPKFLPHKYDVKLQNEDKIISNVPADSLIRTERPPNKEIVRYFIRHNALRAGTGENAPWVVEDELVKKYSLPSKFSDFLLDPYKYMTLNPSTKRKNTGSPDRKPSKKSKTDNSSLSSPLNPKLWCHVHLKKSLSGSPLKVKNSKNSKSPEEHLEEMMKMMSPNKLHTNFHIPKKGPPAKKPGKHSDKPLKAKGRSKGILNGQKSTGNSKSPKKGLKTPKTKMKQMTLLDMAKGTQKMTRAPRNSGGTPRTSSKPHKHLPPAALHLIAYYKENKDREDKRSALSCVISKTARLLSSEDRARLPEELRSLVQKRYELLEHKKRWASMSEEQRKEYLKKKREELKKKLKEKAKERREKEMLERLEKQKRYEDQELTGKNLPAFRLVDTPEGLPNTLFGDVAMVVEFLSCYSGLLLPDAQYPITAVSLMEALSADKGGFLYLNRVLVILLQTLLQDEIAEDYGELGMKLSEIPLTLHSVSELVRLCLRRSDVQEESEGSDTDDNKDSAAFEDNEVQDEFLEKLETSEFFELTSEEKLQILTALCHRILMTYSVQDHMETRQQMSAELWKERLAVLKEENDKKRAEKQKRKEMEAKNKENGKVENGLGKTDRKKEIVKFEPQVDTEAEDMISAVKSRRLLAIQAKKEREIQEREMKVKLERQAEEERIRKHKAAAEKAFQEGIAKAKLVMRRTPIGTDRNHNRYWLFSDEVPGLFIEKGWVHDSIDYRFNHHCKDHTVSGDEDYCPRSKKANLGKNASMNTQHGTATEVAVETTTPKQGQNLWFLCDSQKELDELLNCLHPQGIRESQLKERLEKRYQDIIHSIHLARKPNLGLKSCDGNQELLNFLRSDLIEVATRLQKGGLGYVEETSEFEARVISLEKLKDFGECVIALQASVIKKFLQGFMAPKQKRRKLQSEDSAKTEEVDEEKKMVEEAKVASALEKWKTAIREAQTFSRMHVLLGMLDACIKWDMSAENARCKVCRKKGEDDKLILCDECNKAFHLFCLRPALYEVPDGEWQCPACQPATARRNSRGRNYTEESASEDSEDDESDEEEEEEEEEEEEEDYEVAGLRLRPRKTIRGKHSVIPPAARSGRRPGKKPHSTRRSQPKAPPVDDAEVDELVLQTKRSSRRQSLELQKCEEILHKIVKYRFSWPFREPVTRDEAEDYYDVITHPMDFQTVQNKCSCGSYRSVQEFLTDMKQVFTNAEVYNCRGSHVLSCMVKTEQCLVALLHKHLPGHPYVRRKRKKFPDRLAEDEGDSEPEAVGQSRGRRQKK
binds: all assays above
